In PubChem BioAssay AID1671190 (National Center for Advancing Translational Sciences (NCATS), 2021):
Several values for one entry are separate records, joined by “and”; a condition that tells them apart may be missing. Equal entries are not always repeated. Hit rate of the full screen: of about 580,000 compounds, about 6,100 (1.1%) were called active. Inconclusive results, whose numbers are uncertain, are shown with a selection of clear calls. The call rests on the fitted dose curve; in most records, active means well fitted inhibition curve with a large enough effect; inconclusive means small, poorly fitted or top-dose-only effect, or another doubt; inactive means no such curve, though single readings can be large or run the other way. Where the call is inconclusive, the potency comes from a doubtful curve fit.

The chains behind the UniProt entries cited, without tags or fusion partners. Where a name states a change or a piece, a line headed by the entry shows the natural chain unless it says otherwise.
UniProt P18054: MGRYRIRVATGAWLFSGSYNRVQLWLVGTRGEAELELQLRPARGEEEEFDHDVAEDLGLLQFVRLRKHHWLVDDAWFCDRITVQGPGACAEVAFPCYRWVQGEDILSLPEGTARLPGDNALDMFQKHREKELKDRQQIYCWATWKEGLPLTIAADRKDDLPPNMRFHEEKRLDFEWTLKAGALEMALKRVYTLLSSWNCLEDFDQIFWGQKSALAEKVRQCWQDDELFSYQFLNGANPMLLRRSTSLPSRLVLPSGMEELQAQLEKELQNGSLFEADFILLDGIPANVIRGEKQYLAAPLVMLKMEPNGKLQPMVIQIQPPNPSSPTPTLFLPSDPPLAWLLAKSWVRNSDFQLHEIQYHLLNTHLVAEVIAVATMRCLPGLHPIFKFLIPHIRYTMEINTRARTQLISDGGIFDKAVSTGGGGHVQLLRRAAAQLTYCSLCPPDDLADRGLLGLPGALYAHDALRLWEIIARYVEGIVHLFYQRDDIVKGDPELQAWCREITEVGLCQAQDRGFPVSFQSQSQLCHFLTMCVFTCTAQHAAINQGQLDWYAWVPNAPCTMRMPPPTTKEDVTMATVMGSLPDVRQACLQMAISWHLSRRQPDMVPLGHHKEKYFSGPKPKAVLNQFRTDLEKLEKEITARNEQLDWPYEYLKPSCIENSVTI

target: Polyunsaturated fatty acid lipoxygenase ALOX12 (Homo sapiens) (UniProt P18054); test: Primary qHTS assay for inhibitors of human arachidonate 12S-lipoxygenase (ALOX12): Round 2; conditions: purified 12hLO, xylenol orange hydroperoxide absorbance; activity change, negative = inhibition: at 108 µM (top of the series) unless noted
Procedure, shortened: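 Purified human 12hLO (150 nM final) in 25 mM Hepes, 0.01% Triton X-100, pH 7.0 was preincubated 15 min at room temperature with compound. Then 40 uM arachidonic acid was added, 30 min. Hydroperoxide was read by Fe-XO absorbance ratio 573/405 nm.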
On the % scale 0 is the no-effect control and ±100 the full control effect; potency means the concentration at half of the fitted maximal effect.

Q: How did the Potency turn out when Cc1nn(-c2ncccn2)c2c1C(=O)CC(C)(C)C2Br (configuration not stated) was run?
A: Its Potency is inconclusive: 39.8 µM [inhibitor, partial curve, poor fit].

Q: How did the Potency turn out when COCC1CN(Cc2cn(C)c3ccc(OC)cc23)CC12CCNCC2 (configuration not stated) was run?
A: Its Potency is “inactive”.

Q: For COCc1nnc(NC(=O)c2cc(Cl)ccc2OC)s1, which Potency is on record?
A: The Potency was inconclusive: 79.4 µM [inhibitor, single point].

Q: CC(C)c1ccc(C(C)NC(=O)Cc2cccs2)cc1 (configuration not stated) was tested. Which Potency did it give?
A: Its Potency is inconclusive: 44.7 µM [inhibitor, partial curve, poor fit].

Q: O=C(NCCOc1ccc(F)cc1)c1ccccc1SCc1ccccc1 was tested. Which Potency did it give?
A: The Potency was inconclusive: 89.1 µM [inhibitor, partial curve, poor fit].

Q: How did the Potency turn out when COc1c(C)cc(Br)cc1C(=O)Nc1sc2c(c1C(N)=O)CCCCC2 was run?
A: Its Potency is inconclusive: 14.1 µM [inhibitor, full curve].

Q: With COc1ccc(-n2nc(C3CCCN(C(=O)Nc4ccccc4)C3)[nH]c2=O)cc1 (configuration not stated) as the molecule, how does the Potency read?
A: The Potency was inconclusive: 15.8 µM [inhibitor, full curve].

Q: With Cc1cn2nc(C(=O)N3CCC(NC(=O)c4cccc(F)c4)CC3)cc2c(=O)[nH]1 as the molecule, how does the Potency read?
A: The Potency was “inactive”.

Q: For CC(C)c1ccc(NC(=O)CSc2ncccc2C(=O)Oc2cccc([N+](=O)[O-])c2)cc1, which Potency is on record?
A: The Potency was inconclusive: 112 µM [inhibitor, partial curve, poor fit].

Q: How did the Potency turn out when Cc1ccc(N2NC(=O)/C(=C/c3ccc(-c4ccc(Cl)c(C(=O)O)c4)o3)C2=O)cc1 was run?
A: Its Potency is inconclusive: 44.7 µM [inhibitor, partial curve, poor fit].

Q: For N#C/C(=C/c1ccccc1OC(F)F)C(=O)Nc1ccccc1Oc1ccccc1, which Potency is on record?
A: Its Potency is “inactive”.

Q: O=C(Nc1ccc(-c2cn3ccsc3n2)cc1)C1CCCC1 was tested. Which Potency did it give?
A: The Potency was “inactive”.

Q: How did the Potency turn out when Cn1c(=N)c(S(=O)(=O)c2ccc(F)cc2)cc2c(=O)n3ccccc3nc21 was run?
A: Its Potency is inconclusive: 56.2 µM [inhibitor, partial curve, poor fit].

Q: With O=S(=O)(c1ccccc1)c1nc(-c2ccco2)oc1N1CCCCC1 as the molecule, how does the Potency read?
A: The Potency was inconclusive: 50.1 µM [inhibitor, partial curve, poor fit].

Q: For CC(C)C(N)c1csc(NC(=O)Nc2ccc(OC(F)(F)F)cc2)n1 (configuration not stated), which Potency is on record?
A: Its Potency is inconclusive: 50.1 µM [inhibitor, partial curve, poor fit].

Q: For O=C(Nc1cccc2cccnc12)c1ccc(Br)o1, which Potency is on record?
A: Its Potency is “inactive”.

Q: COc1ccc(CCCc2n[nH]c(=S)o2)cc1 was tested. Which Potency did it give?
A: Its Potency is “inactive”.

Q: NNC(=O)c1ccc(NS(=O)(=O)c2ccc(Br)cc2)cc1 was tested. Which Potency did it give?
A: The Potency was inconclusive: 50.1 µM [inhibitor, partial curve, poor fit].

Q: CC1=C(C(=O)OC(C)(C)C)C(c2ccc(F)cc2)C(C#N)=C(N)O1 (configuration not stated) was tested. Which Potency did it give?
A: Its Potency is inconclusive: 31.6 µM [inhibitor, partial curve, poor fit].

Q: Which Potency does the source give for CCN(CC)S(=O)(=O)c1cccc(-c2n[nH]c(=S)n2/N=C/c2ccc(C(=O)OC)cc2)c1 here?
A: Its Potency is inconclusive: 0.794 µM [inhibitor, full curve, poor fit].

Q: For Cc1cc(NS(=O)(=O)c2ccc(NC(=O)c3cc(-c4cccnc4)nc4ccc(Cl)cc34)cc2)no1, which Potency is on record?
A: Its Potency is inconclusive: 39.8 µM [inhibitor, partial curve, poor fit].

Q: COc1ccc(NS(=O)(=O)c2ccc(-c3cc(C(F)(F)F)on3)s2)cc1OC was tested. Which Potency did it give?
A: The Potency was inconclusive: 44.7 µM [inhibitor, partial curve, poor fit].

Q: Which Potency does the source give for Cc1oc(-c2ccccc2F)nc1CS(=O)(=O)CC(=O)NCCCSC1CCCCC1 here?
A: The Potency was inconclusive: 44.7 µM [inhibitor, partial curve, poor fit].

Q: COc1ccc(CNC(=O)CSc2ncc(S(=O)(=O)c3ccc(C)c(Cl)c3)c(=O)[nH]2)cc1 was tested. Which Potency did it give?
A: The Potency was inconclusive: 100 µM [inhibitor, partial curve, poor fit].

Q: For COc1ccccc1CNC(=O)COC(=O)c1cccnc1SCC(=O)NCc1ccccc1OC, which Potency is on record?
A: Its Potency is “inactive”.

Q: With Cc1c(NCc2nc(-c3cccs3)no2)cccc1-n1cnnn1 as the molecule, how does the Potency read?
A: The Potency was inconclusive: 50.1 µM [inhibitor, partial curve, poor fit].

Q: Which Potency does the source give for C=CCC(C)(NCc1ccccc1)c1ccco1 (configuration not stated) here?
A: Its Potency is “inactive”.

Q: How did the Potency turn out when COc1ccc(CNC(=O)c2ccc3c(c2)CCN3S(=O)(=O)c2ccc(C)cc2)cc1 was run?
A: The Potency was “inactive”.

Q: For CC1CCN(S(=O)(=O)c2ccc3c(c2)CCN3C(=O)Nc2ccc(Br)cc2)CC1, which Potency is on record?
A: Its Potency is inconclusive: 112 µM [inhibitor, partial curve, poor fit].

Q: For COc1ccc2nc(NC(=O)Cn3cnc4c(=O)n(C)c(=O)n(C)c43)sc2c1, which Potency is on record?
A: Its Potency is inconclusive: 25.1 µM [inhibitor, partial curve, poor fit].

Q: O=C(CN(C(=O)c1csnn1)c1cccc2ccccc12)NCc1ccccc1 was tested. Which Potency did it give?
A: The Potency was inconclusive: 44.7 µM [inhibitor, partial curve].

Q: Which Potency does the source give for C/C(=N/Nc1ccc(Cl)c(Cl)c1)c1ccc(C#N)cc1 here?
A: Its Potency is inconclusive: 3.98 µM [inhibitor, full curve, poor fit].

Q: Cc1c(C(=O)Nc2ccc(C(C)C)cc2)sc2nc[nH]c(=O)c12 was tested. Which activity change, negative = inhibition did it give?
A: The activity change, negative = inhibition was inconclusive: -37% [inhibitor].

Q: For Cc1ccc2c(=O)n3c(nc2c1)C(C)NC(=O)c1cccnc1-3 (configuration not stated), which Potency is on record?
A: The Potency was “inactive”.

Q: With O=C(/C=C/c1ccccc1)OCCCc1ccccc1 as the molecule, how does the Potency read?
A: The Potency was “inactive”.

Q: Which Potency does the source give for COc1ccc(-c2nc(-c3c(C)noc3C)cc3cc(CN(C)C)oc23)cn1 here?
A: Its Potency is “inactive”.

Q: With COc1ccc(C2=CC(c3ccc(OC)c(OC)c3)NC(=S)N2)cc1 (configuration not stated) as the molecule, how does the Potency read?
A: The Potency was inconclusive: 31.6 µM [inhibitor, partial curve, poor fit].

Q: With Cc1ccc(CNC(=O)c2c(O)nc3c(C)cccn3c2=O)cc1 as the molecule, how does the Potency read?
A: The Potency was inconclusive: 141 µM [inhibitor, partial curve, poor fit].

Q: With CC(=O)Oc1cccc(C(=O)Nc2cc(Cl)ccc2O)c1 as the molecule, how does the Potency read?
A: Its Potency is “inactive”.

Q: With CC[C@@]1(C(=O)OC)N[C@H](CN(C)C(=O)COC)[C@@H]2C(=O)N(Cc3ccccc3)C(=O)[C@@H]21 as the molecule, how does the Potency read?
A: Its Potency is inconclusive: 56.2 µM [inhibitor, partial curve, poor fit].

Q: For O=C1CCCC2=C1C(c1ccccc1)CC(=O)N2c1ccccc1F (configuration not stated), which Potency is on record?
A: The Potency was inconclusive: 79.4 µM [inhibitor, partial curve, poor fit].

Q: COC(=O)NC(NC(=S)Nc1cccc(C)c1)C(Cl)(Cl)Cl (configuration not stated) was tested. Which Potency did it give?
A: The Potency was inconclusive: 56.2 µM [inhibitor, partial curve, poor fit].

Q: NS(=O)(=O)c1ccc(-c2ccc(/C=N/Nc3ccc(C(=O)O)cc3)o2)cc1 was tested. Which Potency did it give?
A: The Potency was “inactive”.

Q: With CN(C)c1ccc(NS(=O)(=O)c2cc3c4c(c2)CC(=O)N4CCC3)cc1 as the molecule, how does the Potency read?
A: Its Potency is “inactive”.

Q: How did the Potency turn out when Nc1nc(SCC(=O)NCc2ccccc2Cl)[nH]c(=O)c1NC(=O)c1ccccc1F was run?
A: Its Potency is inconclusive: 63.1 µM [inhibitor, partial curve, poor fit].

Q: For COC(=O)c1c(C)n(-c2ccc(C)cc2)c2ccc(O)cc12, which Potency is on record?
A: The Potency was inconclusive: 44.7 µM [inhibitor, partial curve, poor fit].

Q: Which Potency does the source give for C=CCNC(=O)CCc1c(C)nn(-c2ccc(F)cc2)c1Oc1ccccc1 here?
A: Its Potency is inconclusive: 44.7 µM [inhibitor, partial curve].

Q: With CC(=O)c1ccc(-c2cccc3nccn23)cc1 as the molecule, how does the Potency read?
A: The Potency was inconclusive: 100 µM [inhibitor, partial curve, poor fit].

Q: Which Potency does the source give for Cc1cccc2cc(C(c3nnnn3Cc3ccc4c(c3)OCO4)N3CCCC3)c(=O)[nH]c12 (configuration not stated) here?
A: The Potency was inconclusive: 25.1 µM [inhibitor, partial curve, poor fit].

Q: With COc1ccc(OC)c(/C=C/c2nc3ccccc3[nH]c2=O)c1 as the molecule, how does the Potency read?
A: The Potency was inconclusive: 31.6 µM [inhibitor, partial curve, poor fit].

Q: For O=C(c1ccccc1)N(Cc1ccc2c(c1)OCO2)Cc1nc2ccccc2c(=O)[nH]1, which Potency is on record?
A: Its Potency is inconclusive: 28.2 µM [inhibitor, single point].

Q: Which Potency does the source give for Cc1nc2ccccn2c1/C(O)=C1\C(=O)C(=O)N(CCN2CCOCC2)C1c1ccncc1 (configuration not stated) here?
A: Its Potency is inconclusive: 3.16 µM [inhibitor, full curve, poor fit].

Q: How did the Potency turn out when Clc1ccccc1C(c1ccccc1)(c1ccccc1)n1ccnc1 was run?
A: Its Potency is inconclusive: 48.5 µM [inhibitor, single point] and inconclusive: 50.1 µM [inhibitor, single point].

Q: With O=C(Nc1ccc2ncnc(N3CCCC3)c2c1)c1ccc(OC(F)(F)F)cc1 as the molecule, how does the Potency read?
A: Its Potency is inconclusive: 100 µM [inhibitor, single point].

Q: NC(=O)c1cccc(CN2CCCC3(Cc4ccccc4N(C(=O)c4ccc(Cl)cc4)C3)C2)c1 (configuration not stated) was tested. Which Potency did it give?
A: Its Potency is inconclusive: 44.7 µM [inhibitor, partial curve, poor fit].

Q: Which Potency does the source give for CC(C)=NNC1=NC(C)(C)Cc2ccccc21 here?
A: The Potency was inconclusive: 141 µM [inhibitor, single point].

Q: For O=C(C1CC1)N1CCN(c2nc3c(Cl)cccc3s2)CC1, which activity change, negative = inhibition is on record?
A: The activity change, negative = inhibition was inconclusive: -32.5% [inhibitor].

Q: For O=C(CSc1nnnn1-c1cccc2ccccc12)NC(C(=O)O)(c1ccccc1)c1ccccc1, which Potency is on record?
A: Its Potency is inconclusive: 44.7 µM [inhibitor, partial curve, poor fit].

Q: For O=S1(=O)CCN(Cc2c(F)cccc2F)c2c(F)nc(N3CCOCC3)c(F)c21, which Potency is on record?
A: Its Potency is inconclusive: 28.2 µM [inhibitor, single point].

Q: Which Potency does the source give for Cc1ccc(OCC(=O)N2CCCCCCC2)cc1C here?
A: Its Potency is inconclusive: 44.7 µM [inhibitor, partial curve, poor fit].

Q: O=C(NC(=S)Nc1cccc2c(O)cccc12)c1cccc(Br)c1 was tested. Which Potency did it give?
A: Its Potency is active: 17.8 µM.

Q: For COc1ccc(-c2nc(NC(=O)c3cccc(OC)c3)sc2C)cc1, which Potency is on record?
A: Its Potency is inconclusive: 44.7 µM [inhibitor, partial curve, poor fit].
